Test results taken from the supplement of paper PMC12819154, “High-throughput peptide-centric local stability assay extends protein–ligand identification to membrane proteins, tissues and bacteria” (Nature Structural & Molecular Biology, 2025).
This is one part of the list. Most entries show no effect beyond the scatter of the controls.

The chains behind the UniProt entries cited, without tags or fusion partners. Where a name states a change or a piece, a line headed by the entry shows the natural chain unless it says otherwise.
UniProt Q9BUU2: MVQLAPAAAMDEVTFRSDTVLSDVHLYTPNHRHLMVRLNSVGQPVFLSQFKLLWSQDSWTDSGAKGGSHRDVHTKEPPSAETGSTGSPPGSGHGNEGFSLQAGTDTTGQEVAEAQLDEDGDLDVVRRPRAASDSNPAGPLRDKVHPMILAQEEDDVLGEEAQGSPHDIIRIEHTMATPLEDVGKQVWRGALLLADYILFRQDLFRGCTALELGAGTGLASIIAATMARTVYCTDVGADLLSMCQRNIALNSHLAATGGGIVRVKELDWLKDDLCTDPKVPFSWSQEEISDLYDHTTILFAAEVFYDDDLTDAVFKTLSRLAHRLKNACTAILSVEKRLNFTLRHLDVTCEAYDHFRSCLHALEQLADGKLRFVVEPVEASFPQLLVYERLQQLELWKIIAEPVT
UniProt Q9BX63: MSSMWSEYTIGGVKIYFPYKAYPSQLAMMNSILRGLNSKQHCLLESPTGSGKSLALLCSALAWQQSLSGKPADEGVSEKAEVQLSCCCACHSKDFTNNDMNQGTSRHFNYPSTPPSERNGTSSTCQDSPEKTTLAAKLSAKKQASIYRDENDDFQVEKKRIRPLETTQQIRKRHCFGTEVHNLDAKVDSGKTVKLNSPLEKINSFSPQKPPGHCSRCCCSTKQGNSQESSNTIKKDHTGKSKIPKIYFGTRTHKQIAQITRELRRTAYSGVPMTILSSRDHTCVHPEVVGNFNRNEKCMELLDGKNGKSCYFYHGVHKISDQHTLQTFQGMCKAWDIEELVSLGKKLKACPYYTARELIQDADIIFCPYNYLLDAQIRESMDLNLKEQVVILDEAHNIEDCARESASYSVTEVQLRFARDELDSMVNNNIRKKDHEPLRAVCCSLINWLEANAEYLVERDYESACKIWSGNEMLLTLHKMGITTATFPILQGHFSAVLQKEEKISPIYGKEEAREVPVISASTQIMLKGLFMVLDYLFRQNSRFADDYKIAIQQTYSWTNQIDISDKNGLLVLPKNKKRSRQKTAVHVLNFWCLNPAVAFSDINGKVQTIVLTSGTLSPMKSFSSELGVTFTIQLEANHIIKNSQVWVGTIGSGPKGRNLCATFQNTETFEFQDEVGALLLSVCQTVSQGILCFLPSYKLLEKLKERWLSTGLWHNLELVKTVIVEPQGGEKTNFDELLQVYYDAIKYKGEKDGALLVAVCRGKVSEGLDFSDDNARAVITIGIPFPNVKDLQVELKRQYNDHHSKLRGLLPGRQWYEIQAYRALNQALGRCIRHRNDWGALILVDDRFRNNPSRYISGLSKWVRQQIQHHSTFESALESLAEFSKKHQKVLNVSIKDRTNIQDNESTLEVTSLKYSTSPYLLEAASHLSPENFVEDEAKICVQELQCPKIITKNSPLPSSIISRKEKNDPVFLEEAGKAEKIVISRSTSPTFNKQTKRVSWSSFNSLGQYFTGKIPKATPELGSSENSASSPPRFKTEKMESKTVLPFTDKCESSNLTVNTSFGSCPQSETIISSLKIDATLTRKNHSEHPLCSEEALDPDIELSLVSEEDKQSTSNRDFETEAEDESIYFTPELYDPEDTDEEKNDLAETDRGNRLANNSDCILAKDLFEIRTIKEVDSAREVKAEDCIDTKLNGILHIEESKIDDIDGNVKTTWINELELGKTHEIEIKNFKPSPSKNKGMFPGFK
UniProt Q9BWD1: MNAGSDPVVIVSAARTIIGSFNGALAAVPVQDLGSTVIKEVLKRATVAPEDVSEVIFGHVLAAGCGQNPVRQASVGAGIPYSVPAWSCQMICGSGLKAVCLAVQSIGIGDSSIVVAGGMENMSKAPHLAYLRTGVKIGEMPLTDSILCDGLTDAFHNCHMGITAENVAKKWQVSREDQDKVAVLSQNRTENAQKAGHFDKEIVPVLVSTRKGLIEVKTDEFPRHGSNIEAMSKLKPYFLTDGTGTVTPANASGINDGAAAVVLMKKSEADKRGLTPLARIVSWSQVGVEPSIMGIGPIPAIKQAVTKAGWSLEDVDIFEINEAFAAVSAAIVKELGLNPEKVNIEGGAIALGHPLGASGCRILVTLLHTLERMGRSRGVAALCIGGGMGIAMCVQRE
UniProt Q9GZY8: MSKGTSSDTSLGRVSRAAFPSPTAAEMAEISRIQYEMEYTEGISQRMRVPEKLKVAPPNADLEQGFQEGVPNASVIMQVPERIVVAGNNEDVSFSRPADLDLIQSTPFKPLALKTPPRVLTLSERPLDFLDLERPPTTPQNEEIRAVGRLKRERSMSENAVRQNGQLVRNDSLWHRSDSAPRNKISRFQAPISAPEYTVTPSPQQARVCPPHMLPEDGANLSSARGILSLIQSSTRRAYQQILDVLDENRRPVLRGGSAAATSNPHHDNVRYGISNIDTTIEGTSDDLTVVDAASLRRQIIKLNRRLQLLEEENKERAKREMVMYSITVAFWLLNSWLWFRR
UniProt Q9BXW6, whole entry: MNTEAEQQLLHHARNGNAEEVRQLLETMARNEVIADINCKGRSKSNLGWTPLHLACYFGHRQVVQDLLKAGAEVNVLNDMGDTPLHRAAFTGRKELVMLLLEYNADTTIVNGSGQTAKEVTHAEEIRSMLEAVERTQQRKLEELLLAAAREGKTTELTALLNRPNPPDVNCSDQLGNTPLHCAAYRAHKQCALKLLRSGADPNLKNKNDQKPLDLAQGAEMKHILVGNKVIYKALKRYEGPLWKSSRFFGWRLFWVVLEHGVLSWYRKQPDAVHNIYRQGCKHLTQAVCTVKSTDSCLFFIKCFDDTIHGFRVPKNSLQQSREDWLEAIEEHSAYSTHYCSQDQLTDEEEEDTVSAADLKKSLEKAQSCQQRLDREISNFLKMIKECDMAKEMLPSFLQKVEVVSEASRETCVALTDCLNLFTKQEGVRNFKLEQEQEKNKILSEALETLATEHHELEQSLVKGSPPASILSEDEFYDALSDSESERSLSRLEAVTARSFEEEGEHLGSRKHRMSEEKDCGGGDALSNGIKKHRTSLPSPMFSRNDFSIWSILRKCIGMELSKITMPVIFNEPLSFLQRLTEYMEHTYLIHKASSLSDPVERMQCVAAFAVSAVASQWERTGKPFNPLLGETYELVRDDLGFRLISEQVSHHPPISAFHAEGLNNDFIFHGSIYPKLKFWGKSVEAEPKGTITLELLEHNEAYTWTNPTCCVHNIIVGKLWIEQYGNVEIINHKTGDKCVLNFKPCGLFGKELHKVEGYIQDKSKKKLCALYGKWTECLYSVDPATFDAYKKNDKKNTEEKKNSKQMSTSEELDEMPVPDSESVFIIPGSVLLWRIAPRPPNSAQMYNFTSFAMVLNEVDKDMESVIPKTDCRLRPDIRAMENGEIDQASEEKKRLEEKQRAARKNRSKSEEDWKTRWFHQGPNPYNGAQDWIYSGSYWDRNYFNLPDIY
UniProt Q9BXI6: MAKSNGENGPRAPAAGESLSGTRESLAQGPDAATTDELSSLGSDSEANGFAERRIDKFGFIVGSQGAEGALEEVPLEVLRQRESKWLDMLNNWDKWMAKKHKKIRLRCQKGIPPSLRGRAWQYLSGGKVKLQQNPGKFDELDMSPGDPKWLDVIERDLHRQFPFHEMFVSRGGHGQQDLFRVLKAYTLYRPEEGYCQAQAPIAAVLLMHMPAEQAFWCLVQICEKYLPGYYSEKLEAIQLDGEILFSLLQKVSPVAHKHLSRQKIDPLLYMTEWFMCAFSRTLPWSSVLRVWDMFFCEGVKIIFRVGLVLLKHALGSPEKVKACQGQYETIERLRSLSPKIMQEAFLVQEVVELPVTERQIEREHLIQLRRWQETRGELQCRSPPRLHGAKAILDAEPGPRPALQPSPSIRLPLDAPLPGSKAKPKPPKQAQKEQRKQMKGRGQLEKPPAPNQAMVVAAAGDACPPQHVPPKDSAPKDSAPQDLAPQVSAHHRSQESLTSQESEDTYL
UniProt Q9BVC5: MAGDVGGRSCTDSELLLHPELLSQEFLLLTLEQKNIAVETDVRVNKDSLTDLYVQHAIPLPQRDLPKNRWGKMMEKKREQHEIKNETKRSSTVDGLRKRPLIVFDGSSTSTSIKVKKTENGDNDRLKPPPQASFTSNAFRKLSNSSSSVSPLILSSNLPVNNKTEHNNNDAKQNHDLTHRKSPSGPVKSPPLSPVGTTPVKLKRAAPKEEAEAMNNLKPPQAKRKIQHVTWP
UniProt Q9GZM8: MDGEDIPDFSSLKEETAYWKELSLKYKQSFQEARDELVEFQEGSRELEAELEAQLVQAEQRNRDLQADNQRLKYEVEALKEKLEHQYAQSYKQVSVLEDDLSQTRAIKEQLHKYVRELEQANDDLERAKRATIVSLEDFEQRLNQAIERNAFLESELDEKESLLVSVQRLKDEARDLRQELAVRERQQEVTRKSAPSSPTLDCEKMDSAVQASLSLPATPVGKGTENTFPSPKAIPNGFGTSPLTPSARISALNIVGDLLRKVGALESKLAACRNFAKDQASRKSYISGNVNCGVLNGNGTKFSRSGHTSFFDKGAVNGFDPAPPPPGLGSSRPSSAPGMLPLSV
UniProt Q9GZQ3, whole entry: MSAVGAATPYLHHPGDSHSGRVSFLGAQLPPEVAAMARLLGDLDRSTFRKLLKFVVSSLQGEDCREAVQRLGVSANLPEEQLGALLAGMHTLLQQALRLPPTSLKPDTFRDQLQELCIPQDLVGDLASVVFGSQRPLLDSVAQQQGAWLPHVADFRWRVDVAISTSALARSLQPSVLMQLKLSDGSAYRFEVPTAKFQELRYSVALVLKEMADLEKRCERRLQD

Compound: Cc1nc(Nc2ncc(C(=O)Nc3c(C)cccc3Cl)s2)cc(N2CCN(CCO)CC2)n1 [dasatinib]
Experiment: log2 fold change of tryptic peptide abundance, ligand vs vehicle (limited proteolysis) (log2 ratio); higher = more trypsin-susceptible (destabilized)
Conditions: ligand concentration: 5 uM; sample: K562 cleared lysate

Target	log2 fold change
UniProt Q9BUU2 (peptide sequence: AASDSNPAGPLR, peptide start residue: 130)	0.16
BRIP1 (peptide sequence: THEIEIK, peptide start residue: 1226) (UniProt Q9BX63)	-0.391
ACAT2 (peptide sequence: ILVTLLHTLER, peptide start residue: 362) (UniProt Q9BWD1)	-0.1
C20orf27 (peptide sequence: YEITFTLPPVHR, peptide start residue: 64) (UniProt Q9GZN8)	0.299
MFF (peptide sequence: SMSENAVR, peptide start residue: 155) (UniProt Q9GZY8)	-0.0915
OSBPL1A (peptide sequence: VEGYIQDK, peptide start residue: 756) (UniProt Q9BXW6)	-0.0689
TBC1D10A (peptide sequence: AWQYLSGGK, peptide start residue: 120) (UniProt Q9BXI6)	0.327
C2orf49 (peptide sequence: RPLIVFDGSSTSTSIK, peptide start residue: 99) (UniProt Q9BVC5)	-0.259
NDEL1 (peptide sequence: SGHTSFFDK, peptide start residue: 306) (UniProt Q9GZM8)	-0.345
COMMD5 (peptide sequence: SAVGAATPYLHHPGDSHSGR, peptide start residue: 2) (UniProt Q9GZQ3)	-0.107

A stretch from further up, as a working copy:
Target	log2 fold change
BRIP1 (peptide sequence: THEIEIK, peptide start residue: 1226) (UniProt Q9BX63)	-0.391
ACAT2 (peptide sequence: ILVTLLHTLER, peptide start residue: 362) (UniProt Q9BWD1)	-0.1
